Measured values: patent US20240026009A1
Results are given in words; binding and its absence hold for the method and conditions named. Some entries that bind do so weakly or less than the wild type.

Amino acid sequences for entries named in this document (tags omitted). A change or cut given only in a name is not applied to a line headed by its entry.
UniProt P17931: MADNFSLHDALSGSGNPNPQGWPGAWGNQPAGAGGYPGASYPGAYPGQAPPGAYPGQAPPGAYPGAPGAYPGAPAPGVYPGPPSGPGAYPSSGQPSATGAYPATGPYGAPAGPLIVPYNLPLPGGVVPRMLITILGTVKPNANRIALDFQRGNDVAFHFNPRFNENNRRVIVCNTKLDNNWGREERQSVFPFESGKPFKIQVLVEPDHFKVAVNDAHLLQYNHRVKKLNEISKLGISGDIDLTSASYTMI

B1: mAb 20F08 (antibody, V domains shown)
VH: EVQLVESGGGLVKPGGSLRLSCAASGFIFSNYNINWVRQAPGKGLEWVSCVSRSNYTYYTDSVKGRFTISRDNAKKSLYLQMNSLRAEDTAVYYCARDCGTYGVFDYWGQGTLVTVSS
VL: ETTVTQSPASLSMAIGEKVTIRCITSTDIDDDMNWYQQKPGEPPKLLISEGNILRPGVPSRFSSSGYGTDFVFAIENMLSEDVADYYCLQSDNLPYTFGGGTKLELK
B2: mAb 12H07 (antibody, V domains shown)
VH: B1 VH
VL: B1 VL
B3: mAb 39F02 (antibody, V domains shown)
VH: EVQLLESGGGLVQPGGSLRLSCAASGFTLSNYAMSWVRQAPGKGLEWVSAISGSGGGTYNADSVKGRFTISRDNSKNTLYLQMNSLRAEDTAVYYCAKEAWISYFDYWGQGTLVTVSS
VL: DIVMSQSPSSLAVSVGEKVTLSCKSSQSLLYGDDQKNYLAWYQQKPGQSPKLLLYWASTWESGVPDRFTGSGSGTDFTLTISSVKAADLAVYYCQQYYSYPWTFGGGTKLEIK

target: PE labeled Gal-3 (Gal-3-PE) (human) (UniProt P17931); test: blockade of Gal-3-PE binding to OVCAR3 cells by purified antibody, number of Gal-3-PE-bound cells (Mirrorball)

binding, binds:
B1
B2
B3
